Assay results taken from PubChem BioAssay AID1671193 (National Center for Advancing Translational Sciences (NCATS), 2021).
Hit rate of the full screen: of about 150,000 compounds, about 180 (0.12%) were called active. Only results without a clear call are listed here; the source files them as inconclusive. Calls come from the whole dose curve; as a rule, active = well fitted cell-killing curve with a large enough effect; inconclusive = small, poorly fitted or top-dose-only effect, or effect the other way; inactive = flat fitted curve, though single readings scatter.

assay: GF-AFC viability counterscreen for inhibitors of alpha-synuclein gene (SNCA) expression; settings: HEK-293-SNCA-luc viability, GF-AFC fluorescence, 24 h; note: nearly all actives have a fitted effect of over 30% in size
Excerpt: Assay Submitter (PI): Daniel R. Scoles Ph.D.
Department of Neurology, University of Utah, Salt Lake City, Utah
Accumulation of alpha-synuclein is a main underlying pathological feature of Parkinson's disease (PD) and alpha-synucleinopathies, for which lowering expression of the alpha-synuclein gene (SNCA) is a potential therapeutic avenue. Using a cell-based luciferase reporter of SNCA expression we performed a quantitative high throughput screen (qHTS) of 155,885 compounds in dose response. The screening assay was generated using genome editing to insert the luciferase gene downstream and in frame of the SNCA gene in HEK-293 cells (1). A viability counterscreen using GF-AFC was used to eliminate cytotoxic and false positive compounds. […]
Described herein are the results of the GF-AFC viability counterscreen for SNCA inhibitors; inactivity (no decrease in fluorescence signal, not cytotoxic) is the desired output for this assay. […]
7; Detector; Fluorescence; Measure fluorescence with ViewLux microplate reader (PerkinElmer) equipped with 405/10 excitation and 540/25 emission filters. […]
10; Detector; Luminescence; Measure luminescence with ViewLux microplate reader (PerkinElmer) equipped with clear filters. […]
10; Signals were analyzed, and dose-response curves were fit using the Hill equation. […]
Potency is the fitted concentration of half-maximal effect.

Row | Compound | Potency
1 | CCCCOc1ccccc1C(=O)NCC1(N2CCOCC2)CCCCC1 | inconclusive: 31.6 µM
